Consider 1 substance from patent publication US20110110852A1.

The chains behind the UniProt entries cited, without tags or fusion partners. Residues count along the entry.
UniProt O14763, residues 56-440: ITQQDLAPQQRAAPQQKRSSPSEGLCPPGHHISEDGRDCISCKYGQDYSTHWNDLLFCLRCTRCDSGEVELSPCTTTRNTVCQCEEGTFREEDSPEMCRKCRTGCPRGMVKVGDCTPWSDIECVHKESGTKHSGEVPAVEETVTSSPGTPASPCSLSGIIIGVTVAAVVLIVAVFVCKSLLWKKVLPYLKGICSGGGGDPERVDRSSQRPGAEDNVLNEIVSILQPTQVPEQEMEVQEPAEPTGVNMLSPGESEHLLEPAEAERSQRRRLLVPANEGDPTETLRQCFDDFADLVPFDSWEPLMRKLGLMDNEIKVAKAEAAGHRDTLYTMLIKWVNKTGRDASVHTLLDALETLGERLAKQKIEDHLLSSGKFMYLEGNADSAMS
UniProt Q13158: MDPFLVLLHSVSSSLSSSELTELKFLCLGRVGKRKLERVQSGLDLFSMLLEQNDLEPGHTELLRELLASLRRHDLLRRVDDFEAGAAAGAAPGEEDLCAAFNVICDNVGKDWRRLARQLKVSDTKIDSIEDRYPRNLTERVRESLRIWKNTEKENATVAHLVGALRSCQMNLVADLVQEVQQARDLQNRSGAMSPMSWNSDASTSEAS

The experiment concerns the target DR5 on cells (UniProt O14763). Description: DISC analysis on BJAB cells, co-purification with antibody-DR5 complexes, Western blot. For orientation: A western blot detects proteins with antibodies after separation by electrophoresis.

Results are given in words; binding and its absence hold for the method and conditions named. Binding seen in cells or lysates may run through a third protein. Some entries that bind do so weakly or less than the wild type.

With FADD (from UniProt Q13158 1-208), the binding result is on record as “binds”.
